Results deposited as PubChem BioAssay AID686943 (Drosophila RNAi Screening Center, 2013)
In all, the deposit lists about 23,000 reagents; this is a random part of those that have a named target and a result. 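Extra replicates exist only for a retested subset of genes; insulin dose and duration not given; both raised and lowered dpERK matter.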 No sequences are given here. Not given: the amount of reagent, the time to read-out.

Assay: 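Search across the genome for regulators of signalling from receptor tyrosine kinase to ERK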 (primary screen)
Cell system: Drosophila S2R+ haemocyte-like cells expressing YFP-tagged ERK (Rolled)
Knock-down reagent: long dsRNA against Drosophila genes
Treatment: insulin stimulation versus unstimulated cells; dose and duration not given
Measured: 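Antibody staining for doubly phosphorylated ERK divided by ERK-YFP signal, as plate z-scores, in insulin-treated and untreated cells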
Scale: replicate 1, z-score of dpERK with insulin and replicate 2, z-score of dpERK with insulin: higher = more active ERK per ERK-YFP after insulin; replicate 1, z-score of dpERK under basal conditions: higher = more basal active ERK per ERK-YFP; replicate 1, z-score of ERK-YFP with insulin: higher = more YFP-tagged ERK signal

Gene	DRSC id	replicate 1, z-score of dpERK with insulin	replicate 2, z-score of dpERK with insulin	replicate 1, z-score of dpERK under basal conditions	replicate 1, z-score of ERK-YFP with insulin
PolD1	DRSC11138	0.25	0.72	1.03	0.17
Smyd4-1	DRSC06785	0.16	-0.52	0.61	0.04
CG6345	DRSC16024	1.15	0.58	0.58	-0.01
CG11362	DRSC04106	0.4	-0.41	0.76	-0.01
CG11362	DRSC22032	0.49	-0.11	-0.38	-0.39
Cyp4d20	DRSC08654	-0.15	-0.64	0.07	0.49
toc	DRSC00169	0.54	-0.3	-0.1	1.01
toc	DRSC00171	-0.28	1.37	1.01	0.16
toc	DRSC00842	0.94	-0.11	-0.64	-1.29
Osi20	DRSC12568	-0.4	0.46	1.22	0.92
Thor	DRSC00770	0.49	0.3	-0.57	0.05
Ubc6	DRSC12370	-0.5	-1.78	-2.61	6.39
Msr-110	DRSC11227	0.35	0.26	-0.88	0.07
CG10321	DRSC04061	0.46	-0.54	-0.2	0.27
mmy	DRSC02002	0.36	0.07	-0.59	0.26
CG18081	DRSC10294	0.88	0.92	-1.05	0.06
Rad17	DRSC16811	-0.09	0.5	1.1	0.44
AIMP3	DRSC04500	0.43	1.25	-0.43	0.39
CG13148	DRSC06275	1.11	1.39	0.84	-0.24
stac	DRSC13693	0.72	-0.12	1.13	-0.17
stac	DRSC14392	-0.16	-0.11	0.47	-0.66
stac	DRSC22197	-0.28	-0.61	-0.53	-0.92
v	DRSC20383	-0.91	-1.73	-1	0.2
CG8475	DRSC03091	0.33	-0.32	-0.19	-0.74
Pfrx	DRSC18856	0.93	0.19	0.23	-0.08
Pfrx	DRSC19315	0.3	0.96	-0.92	-0.98
Ilp3	DRSC10168	1.16	0.04	0.46	-0.26
Gr22d	DRSC21653	0.05	-0.18	-0.54	-0.12
CG3270	DRSC04988	0.32	0.14	1.2	0.16
RpL7A	DRSC18709	-1.35	0.25	-2.89	-2.42
CG8569	DRSC07214	0.4	0.03	-0.18	-0.63
CG8563	DRSC10996	0.08	0.8	1.03	0.19
Atg12	DRSC09803	0.28	0.34	-1.26	0.48
CG12746	DRSC12218	0.5	-0.07	-0.36	0.04
CG17224	DRSC00489	-0.09	0.34	-1.1	1.07
Sec8	DRSC12300	0.98	0.02	0.4	-0.03
CG4563	DRSC04474	-0.26	0.13	-0.13	0.19
CG8170	DRSC07087	-0.17	0.19	0.54	-0.22
jigr1	DRSC13724	0.89	0.63	0.59	-0.49
jigr1	DRSC15233	0.46	0	1.08	0.22
jigr1	DRSC22617	-0.24	-0.13	-0.58	0.7
